# Measurements taken from PubChem BioAssay AID1671190 (National Center for Advancing Translational Sciences (NCATS), 2021).
# The chains behind the UniProt entries cited, without tags or fusion partners. Where a name states a change or a piece, a line headed by the entry shows the natural chain unless it says otherwise.
# UniProt P18054: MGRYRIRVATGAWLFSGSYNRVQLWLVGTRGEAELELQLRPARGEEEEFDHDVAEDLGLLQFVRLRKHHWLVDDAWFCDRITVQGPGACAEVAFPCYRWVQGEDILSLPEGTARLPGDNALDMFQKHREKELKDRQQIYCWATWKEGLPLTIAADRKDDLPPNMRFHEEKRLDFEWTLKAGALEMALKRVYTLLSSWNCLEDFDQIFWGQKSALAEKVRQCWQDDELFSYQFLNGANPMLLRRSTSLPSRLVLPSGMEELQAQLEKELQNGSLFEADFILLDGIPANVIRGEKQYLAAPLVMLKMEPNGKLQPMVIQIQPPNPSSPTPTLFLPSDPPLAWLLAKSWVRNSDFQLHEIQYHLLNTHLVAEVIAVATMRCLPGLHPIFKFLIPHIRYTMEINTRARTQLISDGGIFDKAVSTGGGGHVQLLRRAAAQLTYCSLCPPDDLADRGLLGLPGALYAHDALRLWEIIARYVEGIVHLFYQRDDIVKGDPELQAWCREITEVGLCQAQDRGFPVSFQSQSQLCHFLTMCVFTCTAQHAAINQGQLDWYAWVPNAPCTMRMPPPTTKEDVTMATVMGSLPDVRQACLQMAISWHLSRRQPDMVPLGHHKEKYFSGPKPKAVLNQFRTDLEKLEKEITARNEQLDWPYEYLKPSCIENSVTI
# Where “and” joins values, the source holds several entries; their conditions need not be identical. Equal values may be shown once. About 6,100 (1.1%) of roughly 580,000 compounds were called active. The shares of active, inactive and inconclusive entries below differ from those in the screen. Calls follow the shape of the dose curve; as a rule, active = well fitted inhibition curve with a large enough effect; inconclusive = small, poorly fitted or top-dose-only effect, or another doubt; inactive = no such curve, though single readings can be large or run the other way. Potencies of inconclusive entries are doubtful fits and often do not repeat.
# Target: Polyunsaturated fatty acid lipoxygenase ALOX12 (Homo sapiens) (UniProt P18054)
# Test: Primary qHTS assay for inhibitors of human arachidonate 12S-lipoxygenase (ALOX12): Round 2
# Settings: purified 12hLO, xylenol orange hydroperoxide absorbance; series mostly up to 108 µM
# In short: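 Hydroperoxide product was detected by ferrous iron/xylenol orange as the 573 to 405 nm absorbance ratio. Arachidonic acid at 40 uM (final) was turned over for 30 min at room temperature by 150 nM human 12hLO, pH 7.0 Hepes buffer, after 15 min compound preincubation.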
# Potency is read from the fitted curve at half-maximal effect.
row,Compound,Potency
1,N#Cc1cc(NC(=O)c2ccc(Cl)cc2)ccc1Sc1ccccc1,inactive
2,Cc1cc(NCc2cccs2)ccc1NC(=O)c1ccco1,inactive
3,CCOC(=O)N1CCN(C(=O)Cn2nc(C)n3nc(-c4ccc(OC)cc4)cc3c2=O)CC1,inactive
4,CS(=O)(=O)Nc1ccccc1C(=O)OCc1cc(=O)n2nc(C3CCCCC3)sc2n1,"inconclusive: 7.94 µM [inhibitor, partial curve, poor fit]"
5,CCOc1cc(C2NC(=O)NC(O)(C(F)(F)F)C2C(=O)c2ccc(Cl)cc2)ccc1O (stereo unspecified),"inconclusive: 89.1 µM [inhibitor, partial curve, poor fit]"
6,O=C(CN1C2CCC1CC(NC(=O)Nc1ccccc1)C2)NCc1ccco1 (stereo unspecified),inactive
7,O=S(=O)(NCc1ccc2c(c1)OCO2)c1cccc(F)c1,inactive
8,COc1ccc(S(=O)(=O)N(C(C)=O)c2ccc3oc(=O)sc3c2)cc1,"inconclusive: 50.1 µM [inhibitor, partial curve, poor fit]"
9,Cc1ccc(NC(=O)Cc2nnc(SC(C)C(=O)Nc3ccc4c(c3)OCO4)n2C)cc1 (stereo unspecified),"inconclusive: 15.8 µM [inhibitor, full curve, poor fit]"
10,COc1ccc(CNc2nc(SCc3ccccc3Cl)nc3ccccc23)cc1,"inconclusive: 56.2 µM [inhibitor, partial curve, poor fit]"
11,Cc1cc(CNC(=O)CC2C(=O)NCCN2Cc2ccc(-c3ccccc3)cc2)nn1C (stereo unspecified),"inconclusive: 15.8 µM [inhibitor, partial curve, poor fit]"
12,Cc1cc(C(=O)N2CCN(S(=O)(=O)c3ccc(F)cc3)CC2)c(C)n1Cc1ccco1,inactive
13,COc1cc(CCCN2C(=S)NC[C@@H]2Cc2ccccc2)cc(OC)c1OC,"inconclusive: 31.6 µM [inhibitor, partial curve, poor fit]"
14,c1cc2c(cc1-c1csc(NC3CC3)n1)OCCCO2,"inconclusive: 7.08 µM [inhibitor, full curve]"
15,Cc1ccc(/C(O)=C2\C(=O)C(=O)N(CCCO)C2c2ccc(Cl)cc2)cc1 (stereo unspecified),"inconclusive: 39.8 µM [inhibitor, partial curve]"
16,NC(=O)C1(C(=O)N2CCc3ncnc(N4CC=CC4)c3CC2)CC1,inactive
17,CCC(NC(=S)NCc1ccc(F)cc1)c1ccc(C)cc1 (stereo unspecified),"inconclusive: 44.7 µM [inhibitor, partial curve, poor fit]"
18,O=C1/C(=C/c2ccccc2)CCCc2ccccc21,"inconclusive: 141 µM [inhibitor, partial curve, poor fit]"
19,O=C(CSc1cccc2cccc(Cl)c12)Nc1cccc(I)c1,"inconclusive: 20 µM [inhibitor, full curve, poor fit]"
20,CS(=O)(=O)Nc1nnc(C2CCCC2)s1,"inconclusive: 25.1 µM [inhibitor, partial curve, poor fit]"
21,CCCCNc1c(-c2cccc(SC(C)CC)c2)nc2ccc(Cl)cn12 (stereo unspecified),"inconclusive: 25.1 µM [inhibitor, partial curve, poor fit] and inconclusive: 50.1 µM [inhibitor, partial curve, poor fit]"

row,Compound,Potency
1,C#CCNC(=O)CCc1ccco1,"inconclusive: 100 µM [inhibitor, single point]"
2,Cc1ccc(-c2nn(C)c(=O)c3ccccc23)cc1CNC(=O)c1ccccc1,"inconclusive: 112 µM [inhibitor, single point] and inconclusive: 141 µM [inhibitor, partial curve, poor fit]"
3,O=C(Cc1cccc2ccccc12)N/N=C1\CCCc2ccccc21,inactive
4,COc1cccc(CN2CCC(C)CC2)c1OC,"inconclusive: 0.126 µM [inhibitor, full curve, poor fit]"
5,O=C1CCCC2=C1C(c1ccc(F)cc1)C=C1c3cc4c(cc3CCN12)OCCCO4 (stereo unspecified),"inconclusive: 0.316 µM [inhibitor, full curve, poor fit]"
6,COc1ccc2oc(-c3ccc(NC(=O)c4ccccc4OC)cc3)nc2c1,"inconclusive: 35.5 µM [inhibitor, partial curve, poor fit]"
7,Cc1sc(NC2CCCCC2)nc1-c1ccc(NS(C)(=O)=O)cc1,"inconclusive: 31.6 µM [inhibitor, partial curve, poor fit]"
8,CC1(C)CC(=O)C2=C(C1)OC(N)=C(C#N)C2c1ccc(-c2ccccc2)cc1 (stereo unspecified),"inconclusive: 89.1 µM [inhibitor, partial curve, poor fit]"
9,CCc1ccc(CCC(=O)N2CCC(C(=O)Nc3cc(C)ccn3)CC2)cc1,inactive
10,COc1ccccc1/C=N/N1C(=O)C(CC(=O)Nc2ccc([N+](=O)[O-])cc2OC)SC1=Nc1cccc(C)c1C (stereo unspecified),inactive
11,CCOC(=O)N1CCC(NC(=O)C2CCCN(Cc3nc(-c4cccc(C)c4)oc3C)C2)CC1 (stereo unspecified),inactive
12,COc1ccccc1OCCN1CSC(=S)N(C)C1,inactive
13,CCOC(=O)C1=C(C(=O)OCC)C2N(Cc3ccc(C(F)(F)F)cc3)c3ccccc3[C@@]23C[C@@H](C(=O)OC)N(S(=O)(=O)c2ccccc2C)C3=N1 (stereo partly specified),inactive
14,Cc1noc2c(-c3cccnc3NC3CCN(C)CC3)cc(-c3ccccc3)nc12,"inconclusive: 39.8 µM [inhibitor, full curve, poor fit]"
15,c1ccc(COc2cccc(CNCCc3c[nH]c4ccccc34)c2)cc1,"inconclusive: 11.2 µM [inhibitor, full curve, poor fit]"
16,Cc1ccc(Cc2c(C3CCCCC3)nc3c(C)cc(Br)cn23)cc1,"inconclusive: 50.1 µM [inhibitor, partial curve, poor fit]"
17,Cc1ccc(C2Cn3nnc(-c4noc(-c5sccc5C)n4)c3CO2)cc1 (stereo unspecified),inactive
18,Cc1cc(C(=O)CSc2nnc(-c3ccc(F)cc3)o2)c(C)n1CC1COc2ccccc2O1 (stereo unspecified),"inconclusive: 100 µM [inhibitor, single point]"
19,CNC(=O)CN(C)C(=O)CCc1ncc(-c2ccccc2F)o1,"inconclusive: 50.1 µM [inhibitor, single point]"
20,O=C(c1cccnc1)N1CCN(Cc2ccc3ccccc3c2)CC1,"inconclusive: 0.447 µM [inhibitor, full curve, poor fit]"

# Ordered by molar mass (ascending): part of the list above.
row,Compound,Potency
12,COc1ccccc1OCCN1CSC(=S)N(C)C1,inactive
3,O=C(Cc1cccc2ccccc12)N/N=C1\CCCc2ccccc21,inactive
7,Cc1sc(NC2CCCCC2)nc1-c1ccc(NS(C)(=O)=O)cc1,"inconclusive: 31.6 µM [inhibitor, partial curve, poor fit]"
8,CC1(C)CC(=O)C2=C(C1)OC(N)=C(C#N)C2c1ccc(-c2ccccc2)cc1 (stereo unspecified),"inconclusive: 89.1 µM [inhibitor, partial curve, poor fit]"
6,COc1ccc2oc(-c3ccc(NC(=O)c4ccccc4OC)cc3)nc2c1,"inconclusive: 35.5 µM [inhibitor, partial curve, poor fit]"
16,Cc1ccc(Cc2c(C3CCCCC3)nc3c(C)cc(Br)cn23)cc1,"inconclusive: 50.1 µM [inhibitor, partial curve, poor fit]"
14,Cc1noc2c(-c3cccnc3NC3CCN(C)CC3)cc(-c3ccccc3)nc12,"inconclusive: 39.8 µM [inhibitor, full curve, poor fit]"
10,COc1ccccc1/C=N/N1C(=O)C(CC(=O)Nc2ccc([N+](=O)[O-])cc2OC)SC1=Nc1cccc(C)c1C (stereo unspecified),inactive
